According to PMC8184793:
Results are given in words; binding and its absence hold for the method and conditions named. Binding seen in cells or lysates may run through a third protein. Some entries that bind do so weakly or less than the wild type. For part of these data: Sequences can lack the tags named with a protein.

By UniProt entry, the sequences of proteins in these tests, tags left out.
UniProt Q9Z329: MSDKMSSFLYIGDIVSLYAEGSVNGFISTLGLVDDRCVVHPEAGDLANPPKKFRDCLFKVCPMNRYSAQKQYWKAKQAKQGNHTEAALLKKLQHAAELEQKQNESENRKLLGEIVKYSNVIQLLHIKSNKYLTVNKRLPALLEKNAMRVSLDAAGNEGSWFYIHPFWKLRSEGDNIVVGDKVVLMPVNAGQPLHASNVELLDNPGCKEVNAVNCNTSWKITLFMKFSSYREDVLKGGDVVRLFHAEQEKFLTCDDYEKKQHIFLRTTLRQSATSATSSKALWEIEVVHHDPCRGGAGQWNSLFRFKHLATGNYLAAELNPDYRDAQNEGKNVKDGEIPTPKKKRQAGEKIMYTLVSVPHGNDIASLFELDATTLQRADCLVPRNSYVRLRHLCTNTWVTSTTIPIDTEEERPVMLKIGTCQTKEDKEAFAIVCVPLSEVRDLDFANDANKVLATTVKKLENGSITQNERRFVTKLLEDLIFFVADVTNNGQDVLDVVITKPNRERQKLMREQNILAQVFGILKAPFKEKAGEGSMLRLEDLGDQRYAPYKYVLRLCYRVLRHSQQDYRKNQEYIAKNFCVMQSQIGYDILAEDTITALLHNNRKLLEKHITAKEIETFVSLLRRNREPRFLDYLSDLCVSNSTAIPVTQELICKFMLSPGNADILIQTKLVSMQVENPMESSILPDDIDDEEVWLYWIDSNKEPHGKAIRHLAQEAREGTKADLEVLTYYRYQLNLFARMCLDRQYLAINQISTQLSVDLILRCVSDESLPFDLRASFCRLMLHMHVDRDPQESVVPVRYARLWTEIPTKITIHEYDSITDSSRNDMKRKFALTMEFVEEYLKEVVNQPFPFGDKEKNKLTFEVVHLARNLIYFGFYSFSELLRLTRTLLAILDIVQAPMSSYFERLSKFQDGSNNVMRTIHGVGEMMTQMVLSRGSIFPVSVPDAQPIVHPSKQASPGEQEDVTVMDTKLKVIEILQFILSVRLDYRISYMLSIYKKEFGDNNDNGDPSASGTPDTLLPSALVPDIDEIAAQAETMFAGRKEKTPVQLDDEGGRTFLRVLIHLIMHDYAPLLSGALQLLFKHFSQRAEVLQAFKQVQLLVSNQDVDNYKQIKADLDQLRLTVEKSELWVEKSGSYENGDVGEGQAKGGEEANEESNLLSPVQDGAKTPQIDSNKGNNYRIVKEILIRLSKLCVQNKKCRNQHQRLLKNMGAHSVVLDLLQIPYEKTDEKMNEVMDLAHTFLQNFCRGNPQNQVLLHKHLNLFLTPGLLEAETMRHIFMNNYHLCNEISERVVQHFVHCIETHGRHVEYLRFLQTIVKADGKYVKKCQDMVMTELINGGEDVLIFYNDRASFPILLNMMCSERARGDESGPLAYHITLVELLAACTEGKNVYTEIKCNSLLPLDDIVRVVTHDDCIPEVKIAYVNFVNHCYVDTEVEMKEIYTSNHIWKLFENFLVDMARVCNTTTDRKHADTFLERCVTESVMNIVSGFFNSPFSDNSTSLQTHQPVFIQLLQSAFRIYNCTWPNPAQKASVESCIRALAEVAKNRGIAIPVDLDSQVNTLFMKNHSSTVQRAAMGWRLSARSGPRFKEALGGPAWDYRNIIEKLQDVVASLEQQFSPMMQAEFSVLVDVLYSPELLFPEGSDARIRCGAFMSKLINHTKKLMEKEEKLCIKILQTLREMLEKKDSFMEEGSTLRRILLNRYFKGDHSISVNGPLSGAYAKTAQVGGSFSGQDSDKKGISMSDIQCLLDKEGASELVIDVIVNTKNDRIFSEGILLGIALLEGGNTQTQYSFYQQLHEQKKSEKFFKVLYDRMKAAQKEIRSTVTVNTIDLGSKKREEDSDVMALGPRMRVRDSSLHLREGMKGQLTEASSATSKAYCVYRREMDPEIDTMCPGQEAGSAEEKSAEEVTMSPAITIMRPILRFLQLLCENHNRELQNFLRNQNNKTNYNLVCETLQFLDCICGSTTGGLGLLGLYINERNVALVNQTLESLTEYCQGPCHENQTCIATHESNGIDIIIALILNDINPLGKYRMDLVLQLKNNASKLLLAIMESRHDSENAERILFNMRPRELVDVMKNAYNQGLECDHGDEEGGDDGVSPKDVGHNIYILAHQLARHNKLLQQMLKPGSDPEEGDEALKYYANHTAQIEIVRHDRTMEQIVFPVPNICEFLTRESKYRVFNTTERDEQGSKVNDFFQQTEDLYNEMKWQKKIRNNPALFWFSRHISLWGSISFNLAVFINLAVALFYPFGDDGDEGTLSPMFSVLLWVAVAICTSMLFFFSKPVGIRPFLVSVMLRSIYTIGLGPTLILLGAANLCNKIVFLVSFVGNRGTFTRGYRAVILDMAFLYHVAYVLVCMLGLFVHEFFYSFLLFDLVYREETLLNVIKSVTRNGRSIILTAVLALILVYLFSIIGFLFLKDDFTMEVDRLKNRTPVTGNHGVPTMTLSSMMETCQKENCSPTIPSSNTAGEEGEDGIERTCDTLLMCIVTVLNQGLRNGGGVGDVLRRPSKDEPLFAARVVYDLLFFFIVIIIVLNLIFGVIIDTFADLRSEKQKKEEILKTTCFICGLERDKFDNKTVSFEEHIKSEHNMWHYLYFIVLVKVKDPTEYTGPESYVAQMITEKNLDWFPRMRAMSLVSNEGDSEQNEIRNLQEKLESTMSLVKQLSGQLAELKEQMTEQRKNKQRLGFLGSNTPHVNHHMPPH

Tests used:
[1] = molecular target: T1, Lrmp (mouse (endogenous in small intestinal tissue)) (UniProt Q60664); test: proximity ligation; in situ Duolink PLA on FFPE sections of mouse small intestine with anti-Lrmp and anti-ITPR2 antibodies; tuft cells identified by Dclk1 staining; Lrmp-/- tissue as control
T1 sequence: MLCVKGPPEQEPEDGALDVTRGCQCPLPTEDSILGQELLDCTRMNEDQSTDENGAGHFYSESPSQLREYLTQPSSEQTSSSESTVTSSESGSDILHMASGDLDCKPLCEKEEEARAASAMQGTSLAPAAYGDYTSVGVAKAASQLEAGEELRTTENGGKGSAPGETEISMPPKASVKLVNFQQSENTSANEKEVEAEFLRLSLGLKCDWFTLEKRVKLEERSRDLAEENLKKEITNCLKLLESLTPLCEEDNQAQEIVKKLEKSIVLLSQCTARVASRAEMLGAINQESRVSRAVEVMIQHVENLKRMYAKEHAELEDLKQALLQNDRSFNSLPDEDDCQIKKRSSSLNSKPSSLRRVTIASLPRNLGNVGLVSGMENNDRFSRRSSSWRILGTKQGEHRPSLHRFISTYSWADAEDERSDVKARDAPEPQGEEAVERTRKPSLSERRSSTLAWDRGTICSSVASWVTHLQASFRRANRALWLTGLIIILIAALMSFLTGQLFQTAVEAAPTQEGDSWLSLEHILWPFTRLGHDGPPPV

Lrmp-Flag (mouse) = molecular target: T2, Lrmp-Flag (mouse) (UniProt Q60664); test: co-IP; MEFs co-transfected with Lrmp-Flag and ITPR2-HA; co-IP with an anti-Flag antibody, Western blot
T2 sequence: T1 sequence

[2] = molecular target: T3, full-length Lrmp-Flag (mouse) (UniProt Q60664); test: co-IP; H1299 cells co-transfected with Flag-tagged Lrmp (full length or deletion mutants) and ITPR2-HA; anti-Flag and anti-HA agarose beads, Western blot
T3 sequence: T1 sequence

ITPR2 (from UniProt Q9Z329 1-2701) (receptor)
binding [1]: binds

ITPR2-HA (from UniProt Q9Z329 1-2701) (receptor)
binding (Lrmp-Flag (mouse)): binds

WT ITPR2-HA (from UniProt Q9Z329 1-2701) (receptor)
binding [2]: binds
